Literature values in US9492398B2, “Nanocapsulation of essential oils for preventing or curing infectious diseases alone or with an antibiotic” (Eydo Pharma, priority 2011, dated 2016).

Conditions: from the literature; cited from earlier work

Q: For `O=C(O)c1cn(C2CC2)c2cc(N3CCNCC3)c(F)cc2c1=O` [Ciprofloxacin], which “LD50 in mice by intraperitoneal injection” value is on record?
A: 1165 mg/kg
